Measured values taken from the supplement of paper PMC11438910.
The other results are listed elsewhere or left out. The signal is at background level for most entries.

Legend:
Test in all cases: fluorescence intensity of antibody binding to polysaccharide-coupled beads; higher = stronger binding
[1] = target: pneumococcal polysaccharide Pn33B
[2] = target: pneumococcal polysaccharide Pn33C
[3] = target: pneumococcal polysaccharide Pn33D
[4] = target: pneumococcal polysaccharide Pn33F
[5] = target: pneumococcal polysaccharide Pn34
[6] = target: pneumococcal polysaccharide Pn35A
[7] = target: pneumococcal polysaccharide Pn35B
[8] = target: pneumococcal polysaccharide Pn35C
[9] = target: pneumococcal polysaccharide Pn35F
[10] = target: pneumococcal polysaccharide Pn36
[11] = target: pneumococcal polysaccharide Pn37
[12] = target: pneumococcal polysaccharide Pn38
[13] = target: pneumococcal polysaccharide Pn39
[14] = target: pneumococcal polysaccharide Pn4
[15] = target: pneumococcal polysaccharide Pn40
[16] = target: pneumococcal polysaccharide Pn41A
[17] = target: pneumococcal polysaccharide Pn41F
[18] = target: pneumococcal polysaccharide Pn42
[19] = target: pneumococcal polysaccharide Pn43
[20] = target: pneumococcal polysaccharide Pn44
[21] = target: pneumococcal polysaccharide Pn45
[22] = target: pneumococcal polysaccharide Pn46
[23] = target: pneumococcal polysaccharide Pn47A
[24] = antibody concentration 2.8593 ng/mL
[25] = antibody concentration 15.2894 ng/mL
[26] = antibody concentration 81.7561 ng/mL
[27] = antibody concentration 437.17 ng/mL
[28] = antibody concentration 2337.65 ng/mL
[29] = antibody concentration 12500 ng/mL
[30] = antibody concentration 0.1 ng/mL
[31] = antibody concentration 0.534724 ng/mL

B1: 4-127.5 (protein)
chain 1: QVQLQESGPGLVKPSETLSLTCAVSGYSISSGYGWSWIRQPPGKGLEWIGYIGGSDSSTNYNPSLKSRVTISKDTSKNQLSLKLRSVTAADTAVYYCGSRGAVAGLGGLDSWGQGLLVTVSS
chain 2: QSVLTQPPSVSGAPGQRVTISCTGSSSNIGAGYGVQWYQQLPGTAPKLLIYENNKRPSGVFDRFSGSQSGTSGSLTITGLQSEDEADYYCQSYDSSLKAVLFGGGTRLTVL
fluorescence intensity [1, 24]: 18 MFI | fluorescence intensity [1, 25]: 19 MFI | fluorescence intensity [1, 26]: 18.5 MFI | fluorescence intensity [1, 27]: 18.5 MFI | fluorescence intensity [1, 28]: 21.5 MFI | fluorescence intensity [1, 29]: 33 MFI | fluorescence intensity [2, 30]: 20 MFI | fluorescence intensity [2, 31]: 19 MFI | fluorescence intensity [2, 24]: 19.5 MFI | fluorescence intensity [2, 25]: 20.2 MFI | fluorescence intensity [2, 26]: 21 MFI | fluorescence intensity [2, 27]: 20.5 MFI | fluorescence intensity [2, 28]: 24.5 MFI | fluorescence intensity [2, 29]: 72.5 MFI | fluorescence intensity [3, 30]: 16.5 MFI | fluorescence intensity [3, 31]: 17.5 MFI | fluorescence intensity [3, 24]: 16.5 MFI | fluorescence intensity [3, 25]: 16.8 MFI | fluorescence intensity [3, 26]: 17.5 MFI | fluorescence intensity [3, 27]: 17.8 MFI | fluorescence intensity [3, 28]: 20.5 MFI | fluorescence intensity [3, 29]: 33.5 MFI | fluorescence intensity [4, 30]: 14 MFI | fluorescence intensity [4, 31]: 13.5 MFI | fluorescence intensity [4, 24]: 14 MFI | fluorescence intensity [4, 25]: 14.5 MFI | fluorescence intensity [4, 26]: 13.5 MFI | fluorescence intensity [4, 27]: 14.5 MFI | fluorescence intensity [4, 28]: 21.5 MFI | fluorescence intensity [4, 29]: 174 MFI | fluorescence intensity [5, 30]: 15 MFI | fluorescence intensity [5, 31]: 16.2 MFI | fluorescence intensity [5, 24]: 15 MFI | fluorescence intensity [5, 25]: 15 MFI | fluorescence intensity [5, 26]: 15 MFI | fluorescence intensity [5, 27]: 13.5 MFI | fluorescence intensity [5, 28]: 16 MFI | fluorescence intensity [5, 29]: 19 MFI | fluorescence intensity [6, 30]: 16.5 MFI | fluorescence intensity [6, 31]: 16.5 MFI | fluorescence intensity [6, 24]: 17 MFI | fluorescence intensity [6, 25]: 17.5 MFI | fluorescence intensity [6, 26]: 18 MFI | fluorescence intensity [6, 27]: 19 MFI | fluorescence intensity [6, 28]: 28.5 MFI | fluorescence intensity [6, 29]: 136 MFI | fluorescence intensity [7, 30]: 19 MFI | fluorescence intensity [7, 31]: 17.5 MFI | fluorescence intensity [7, 24]: 18.5 MFI | fluorescence intensity [7, 25]: 19.5 MFI | fluorescence intensity [7, 26]: 18.5 MFI | fluorescence intensity [7, 27]: 19 MFI | fluorescence intensity [7, 28]: 25.8 MFI | fluorescence intensity [7, 29]: 83.5 MFI | fluorescence intensity [8, 30]: 20.5 MFI | fluorescence intensity [8, 31]: 19.5 MFI | fluorescence intensity [8, 24]: 18.5 MFI | fluorescence intensity [8, 25]: 20.5 MFI | fluorescence intensity [8, 26]: 21.2 MFI | fluorescence intensity [8, 27]: 20 MFI | fluorescence intensity [8, 28]: 22 MFI | fluorescence intensity [8, 29]: 29.5 MFI | fluorescence intensity [9, 30]: 21 MFI | fluorescence intensity [9, 31]: 21.5 MFI | fluorescence intensity [9, 24]: 20 MFI | fluorescence intensity [9, 25]: 17.5 MFI | fluorescence intensity [9, 26]: 19 MFI | fluorescence intensity [9, 27]: 19.5 MFI | fluorescence intensity [9, 28]: 22.5 MFI | fluorescence intensity [9, 29]: 26.8 MFI | fluorescence intensity [10, 30]: 17.2 MFI | fluorescence intensity [10, 31]: 16.5 MFI | fluorescence intensity [10, 24]: 15 MFI | fluorescence intensity [10, 25]: 16 MFI | fluorescence intensity [10, 26]: 16.8 MFI | fluorescence intensity [10, 27]: 15.5 MFI | fluorescence intensity [10, 28]: 18.5 MFI | fluorescence intensity [10, 29]: 46.2 MFI | fluorescence intensity [11, 30]: 25.5 MFI | fluorescence intensity [11, 31]: 27 MFI | fluorescence intensity [11, 24]: 26.5 MFI | fluorescence intensity [11, 25]: 27 MFI | fluorescence intensity [11, 26]: 26.8 MFI | fluorescence intensity [11, 27]: 29.5 MFI | fluorescence intensity [11, 28]: 45 MFI | fluorescence intensity [11, 29]: 342 MFI | fluorescence intensity [12, 30]: 27 MFI | fluorescence intensity [12, 31]: 26 MFI | fluorescence intensity [12, 24]: 26 MFI | fluorescence intensity [12, 25]: 25.5 MFI | fluorescence intensity [12, 26]: 28.5 MFI | fluorescence intensity [12, 27]: 28.5 MFI | fluorescence intensity [12, 28]: 31 MFI | fluorescence intensity [12, 29]: 55 MFI | fluorescence intensity [13, 30]: 18.5 MFI | fluorescence intensity [13, 31]: 18.5 MFI | fluorescence intensity [13, 24]: 18 MFI | fluorescence intensity [13, 25]: 19 MFI | fluorescence intensity [13, 26]: 19 MFI | fluorescence intensity [13, 27]: 18.5 MFI | fluorescence intensity [13, 28]: 25 MFI | fluorescence intensity [13, 29]: 85.5 MFI | fluorescence intensity [14, 30]: 20 MFI | fluorescence intensity [14, 31]: 19.8 MFI | fluorescence intensity [14, 24]: 18.5 MFI | fluorescence intensity [14, 25]: 19.8 MFI | fluorescence intensity [14, 26]: 19.5 MFI | fluorescence intensity [14, 27]: 21 MFI | fluorescence intensity [14, 28]: 27 MFI | fluorescence intensity [14, 29]: 31.8 MFI | fluorescence intensity [15, 30]: 17.8 MFI | fluorescence intensity [15, 31]: 17 MFI | fluorescence intensity [15, 24]: 17 MFI | fluorescence intensity [15, 25]: 16.5 MFI | fluorescence intensity [15, 26]: 16.5 MFI | fluorescence intensity [15, 27]: 17 MFI | fluorescence intensity [15, 28]: 20.5 MFI | fluorescence intensity [15, 29]: 72.8 MFI | fluorescence intensity [16, 30]: 23.2 MFI | fluorescence intensity [16, 31]: 24.5 MFI | fluorescence intensity [16, 24]: 24.5 MFI | fluorescence intensity [16, 25]: 23.5 MFI | fluorescence intensity [16, 26]: 24.5 MFI | fluorescence intensity [16, 27]: 24.8 MFI | fluorescence intensity [16, 28]: 27 MFI | fluorescence intensity [16, 29]: 30.5 MFI | fluorescence intensity [17, 30]: 14 MFI | fluorescence intensity [17, 31]: 13.5 MFI | fluorescence intensity [17, 24]: 13 MFI | fluorescence intensity [17, 25]: 12 MFI | fluorescence intensity [17, 26]: 12.5 MFI | fluorescence intensity [17, 27]: 14 MFI | fluorescence intensity [17, 28]: 16 MFI | fluorescence intensity [17, 29]: 19.2 MFI | fluorescence intensity [18, 30]: 12 MFI | fluorescence intensity [18, 31]: 11.5 MFI | fluorescence intensity [18, 24]: 12.5 MFI | fluorescence intensity [18, 25]: 12.5 MFI | fluorescence intensity [18, 26]: 12.5 MFI | fluorescence intensity [18, 27]: 12 MFI | fluorescence intensity [18, 28]: 13.5 MFI | fluorescence intensity [18, 29]: 28.5 MFI | fluorescence intensity [19, 30]: 16.5 MFI | fluorescence intensity [19, 31]: 16.5 MFI | fluorescence intensity [19, 24]: 17 MFI | fluorescence intensity [19, 25]: 16 MFI | fluorescence intensity [19, 26]: 16.8 MFI | fluorescence intensity [19, 27]: 18 MFI | fluorescence intensity [19, 28]: 24.5 MFI | fluorescence intensity [19, 29]: 165 MFI | fluorescence intensity [20, 30]: 26.5 MFI | fluorescence intensity [20, 31]: 25 MFI | fluorescence intensity [20, 24]: 25.8 MFI | fluorescence intensity [20, 25]: 26 MFI | fluorescence intensity [20, 26]: 26.5 MFI | fluorescence intensity [20, 27]: 25.5 MFI | fluorescence intensity [20, 28]: 28 MFI | fluorescence intensity [20, 29]: 32.5 MFI | fluorescence intensity [21, 30]: 11.5 MFI | fluorescence intensity [21, 31]: 12 MFI | fluorescence intensity [21, 24]: 10.5 MFI | fluorescence intensity [21, 25]: 12 MFI | fluorescence intensity [21, 26]: 11.2 MFI | fluorescence intensity [21, 27]: 11.5 MFI | fluorescence intensity [21, 28]: 13 MFI | fluorescence intensity [21, 29]: 15.5 MFI | fluorescence intensity [22, 30]: 22.8 MFI | fluorescence intensity [22, 31]: 23.5 MFI | fluorescence intensity [22, 24]: 25.5 MFI | fluorescence intensity [22, 25]: 23.8 MFI | fluorescence intensity [22, 26]: 24.5 MFI | fluorescence intensity [22, 27]: 23.5 MFI | fluorescence intensity [22, 28]: 29.5 MFI | fluorescence intensity [22, 29]: 58 MFI | fluorescence intensity [23, 30]: 17 MFI | fluorescence intensity [23, 31]: 16.5 MFI | fluorescence intensity [23, 24]: 16 MFI | fluorescence intensity [23, 25]: 16 MFI | fluorescence intensity [23, 26]: 16.5 MFI | fluorescence intensity [23, 27]: 16.5 MFI
